PubChem BioAssay AID504808 | Drosophila RNAi Screening Center, 2011

- Purpose: 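Genes whose loss lifts activity of an E2F-responsive reporter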 (primary screen)
- Cells: Drosophila S2 cells
- Knock-down reagent: long dsRNA against Drosophila genes
- Read-out: 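Firefly luciferase driven by E2F sites, normalised to Renilla luciferase on the same minimal promoter, measured by plate reader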
- Reading the numbers: E2F firefly: higher = more E2F reporter activity; Renilla normaliser: higher = more normaliser reporter signal
- Active means: 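Called active if the normalised E2F reporter went up by over 50%; the cutoff is arbitrary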
In all, the deposit lists about 21,000 reagents; shown is an unselected part of those with a known target gene and a result. Of all reagents, 18 (0.084%) are marked active. 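Raw counts without plate normalisation, one of two replicates; the ratio scores behind the calls were not deposited.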 Unmarked entries are inactive. The numbers tell different reagents against one gene apart. A plus sign joins genes that one reagent is predicted to hit. Reagent sequences are not shown. Not stated in the record: the amount of reagent, the time to read-out.

| gene | dsRNA no. | E2F firefly, rep 1 | Renilla normaliser, rep 1 |
| --- | --- | --- | --- |
| CG17047 | 1 | 1.16e5 | 4925 |
| PAPLA1 | 1 | 87595 | 4144 |
| PAPLA1 | 2 | 1.42e5 | 4663 |
| SdhC | 1 | 1.40e5 | 6533 |
| Lsp1alpha | 1 | 32358 | 2554 |
| CG13065 | 1 | 1.41e5 | 7065 |
| mts | 1 | 79811 | 3564 |
| CG12935 | 1 | 3309 | 36 |
| CG13856 | 1 | 1.54e5 | 8607 |
| CG9184 | 1 | 93889 | 4262 |
| CG13793 | 1 | 1.49e5 | 5029 |
| CG30083 | 1 | 1.39e5 | 5132 |
| fat-spondin | 1 | 78422 | 3832 |
| Elovl7 | 1 | 1.41e5 | 6954 |
| CG9445 | 1 | 1.56e5 | 5136 |
| Eb1 | 1 | 93691 | 4006 |
| CG15449 | 1 | 1.36e5 | 7108 |
| CG7945 + yellow-k | 1 | 1.64e5 | 7241 |
| Rim2 | 1 | 1.38e5 | 6747 |
| Rim2 | 2 | 84307 | 3715 |
| CG9016 | 1 | 1.42e5 | 5194 |
| Hsc70-2 | 1 | 90120 | 4653 |
| CG8541 | 1 | 96061 | 4479 |
| CG7365 | 1 | 85499 | 3806 |
| DopEcR | 1 | 71695 | 3263 |
| CG18233 | 1 | 1.58e5 | 7858 |
| CG7694 | 1 | 1.34e5 | 6272 |
| CG32982 | 1 | 1.03e5 | 5669 |
| CG32982 | 2 | 1.73e5 | 5207 |
| CG32982 | 3 | 1.67e5 | 5415 |
| CG32982 | 4 | 1.49e5 | 4712 |
| Gdi | 1 | 93656 | 3962 |
| CG18180 | 1 | 82502 | 3846 |
| Osi5 | 1 | 1.34e5 | 6592 |
| HemK1 | 1 | 1.04e5 | 4315 |
| pico | 1 | 1.42e5 | 6580 |

18 neighbouring reagents already listed, quoted:
| gene | dsRNA no. | E2F firefly, rep 1 | Renilla normaliser, rep 1 |
| --- | --- | --- | --- |
| Lsp1alpha | 1 | 32358 | 2554 |
| CG13065 | 1 | 1.41e5 | 7065 |
| mts | 1 | 79811 | 3564 |
| CG12935 | 1 | 3309 | 36 |
| CG13856 | 1 | 1.54e5 | 8607 |
| CG9184 | 1 | 93889 | 4262 |
| CG13793 | 1 | 1.49e5 | 5029 |
| CG30083 | 1 | 1.39e5 | 5132 |
| fat-spondin | 1 | 78422 | 3832 |
| Elovl7 | 1 | 1.41e5 | 6954 |
| CG9445 | 1 | 1.56e5 | 5136 |
| Eb1 | 1 | 93691 | 4006 |
| CG15449 | 1 | 1.36e5 | 7108 |
| CG7945 + yellow-k | 1 | 1.64e5 | 7241 |
| Rim2 | 1 | 1.38e5 | 6747 |
| Rim2 | 2 | 84307 | 3715 |
| CG9016 | 1 | 1.42e5 | 5194 |
| Hsc70-2 | 1 | 90120 | 4653 |

The list goes on.
| gene | dsRNA no. | E2F firefly, rep 1 | Renilla normaliser, rep 1 |
| --- | --- | --- | --- |
| Cyp6w1 | 1 | 77482 | 3015 |
| CG42238 | 1 | 83920 | 3287 |
| dind | 1 | 72000 | 4031 |
| Spt3 | 1 | 1.09e5 | 5251 |
| CG2258 | 1 | 7630 | 728 |
| CG10725 | 1 | 78360 | 3334 |
| Tdh | 1 | 79128 | 3508 |
| Spf45 | 1 | 1.11e5 | 4872 |
| Pcf11 | 1 | 94 | 28 |
| Delta | 1 | 1.55e5 | 6467 |
| cocoon | 1 | 1.54e5 | 7369 |
| CG7856 | 1 | 1.12e5 | 4523 |
| CG10257 | 1 | 1.07e5 | 4676 |
| CG18766 | 1 | 1492 | 852 |
| Cyp6a22 | 1 | 132 | 25 |
| Gr89a | 1 | 99792 | 5708 |
| Syx6 | 1 | 2924 | 208 |
| Diap2 | 1 | 67423 | 3246 |
| robo1 | 1 | 98434 | 3718 |
| Cul1 | 1 | 2727 | 230 |
| CG12279 | 1 | 1.17e5 | 5692 |
| CG46491 | 1 | 71182 | 3345 |
| CG46491 | 2 | 1.38e5 | 5232 |
| tou | 1 | 3044 | 251 |
| CG32037 | 1 | 1.21e5 | 6930 |
| S6kII | 1 | 1.61e5 | 5631 |
| CG7840 | 1 | 96371 | 4058 |
| Mur89F | 1 | 1.05e5 | 6224 |
| dila | 1 | 1.26e5 | 4610 |
| Dad1 | 1 | 1.53e5 | 5429 |
| net | 1 | 1.44e5 | 4864 |
| CG6878 | 1 | 1.43e5 | 8340 |
| BtbVII | 1 | 82816 | 3177 |
| BtbVII | 2 | 75380 | 3168 |
| bsd | 1 | 72233 | 3896 |
| Arr2 | 1 | 97746 | 3728 |
| Rab39 | 1 | 38922 | 3024 |
| Rgk3 | 1 | 1.11e5 | 4400 |
| Rgk3 | 2 | 1.13e5 | 4692 |
| Rgk3 | 3 | 1.11e5 | 4396 |
| Rgk3 | 4 | 99725 | 4185 |
| Cht6 | 1 | 1.21e5 | 6092 |
| Cht6 | 2 | 79998 | 4109 |
| Cht6 | 3 | 1.32e5 | 6852 |
| PpD5 | 1 | 1.05e5 | 4942 |
| Vm26Ab | 1 | 1.53e5 | 4918 |
| Obp83a | 1 | 1.30e5 | 7313 |
| CG13436 | 1 | 97215 | 4129 |
| RpS27 | 1 | 60829 | 5268 |
| wun | 1 | 3058 | 202 |
| Abl | 1 | 1.60e5 | 8615 |
| PIG-N | 1 | 1.47e5 | 4920 |
| Prp40 | 1 | 65814 | 189 |
| t-Grip84 | 1 | 1.12e5 | 3919 |
| C3G | 1 | 1.12e5 | 5360 |
| C3G | 2 | 6052 | 355 |
| Drgx | 1 | 1.40e5 | 4771 |
| Drgx | 2 | 1.48e5 | 5200 |
| prd1 | 1 | 1.30e5 | 5893 |
| mei-P22 | 1 | 97033 | 4613 |
| TTLL4B | 1 | 78579 | 3956 |
| CG17404 | 1 | 1.49e5 | 6899 |
| Pus7 | 1 | 86962 | 3682 |
| CG13484 | 1 | 1.66e5 | 8181 |
| key | 1 | 95593 | 3993 |
| CG31819 | 1 | 1.29e5 | 5102 |
| sut3 | 1 | 1.61e5 | 5628 |
| CG6753 | 1 | 1.41e5 | 6606 |
| CG33792 | 1 | 1.46e5 | 5180 |
| CG12818 | 1 | 1.45e5 | 5851 |
| ap | 1 | 77420 | 4065 |
